# Some of the results follow.
# What was measured:
# Assay in all cases: glycan array binding signal (z-score within array); higher = stronger binding
# Settings in all cases: glycan notation: IUPAC condensed, linker removed
# [1] = biological target: Fuc(a1-2)[GalNAc(a1-3)]Gal(b1-4)Glc
# Method in brief: (§1)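 Glycan array data were curated from 3228 arrays in the Consortium for Functional Glycomics database and kept only where the protein sequence was available. Glycan names were converted to IUPAC-condensed notation, and columns mapping to the same glycan were averaged. The binding signal is a within-array Z-score, averaged across arrays of the same protein sequence at different concentrations or buffers and across linkers. Negative Z-scores can be read as non-binding.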
# [2] = biological target: Fuc(a1-2)[GalNAc(a1-3)]Gal(b1-4)GlcNAc
# Method in brief: as §1
# [3] = biological target: Fuc(a1-2)[GalNAc(a1-3)]Gal(b1-4)GlcNAc(b1-2)Man
# Method in brief: as §1
# [4] = biological target: Fuc(a1-2)[GalNAc(a1-3)]Gal(b1-4)GlcNAc(b1-2)Man(a1-3)[Fuc(a1-2)[GalNAc(a1-3)]Gal(b1-4)GlcNAc(b1-2)Man(a1-6)]Man(b1-4)GlcNAc(b1-4)GlcNAc
# Method in brief: as §1
# [5] = biological target: Fuc(a1-2)[GalNAc(a1-3)]Gal(b1-4)GlcNAc(b1-2)Man(a1-3)[Fuc(a1-2)[GalNAc(a1-3)]Gal(b1-4)GlcNAc(b1-2)Man(a1-6)]Man(b1-4)GlcNAc(b1-4)[Fuc(a1-6)]GlcNAc
# Method in brief: as §1
# [6] = biological target: Fuc(a1-2)[GalNAc(a1-3)]Gal(b1-4)GlcNAc(b1-3)Gal(b1-4)GlcNAc
# Method in brief: as §1
# [7] = biological target: Fuc(a1-2)[GalNAc(a1-3)]Gal(b1-4)GlcNAc(b1-3)Gal(b1-4)GlcNAc(b1-3)Gal(b1-4)GlcNAc
# Method in brief: as §1
# [8] = biological target: Fuc(a1-2)[GalNAc(a1-3)]Gal(b1-4)GlcNAc(b1-3)GalNAc
# Method in brief: as §1
# [9] = biological target: Fuc(a1-2)[GalNAc(a1-3)]Gal(b1-4)GlcNAc(b1-3)[Fuc(a1-2)[GalNAc(a1-3)]Gal(b1-4)GlcNAc(b1-6)]GalNAc
# Method in brief: as §1
# [10] = biological target: Fuc(a1-2)[GalNAc(a1-3)]Gal(b1-4)GlcNAc(b1-6)GalNAc
# Method in brief: as §1
# [11] = biological target: Fuc(a1-2)[GalNAc(a1-3)]Gal(b1-4)[Fuc(a1-3)]GlcNAc
# Method in brief: as §1
# [12] = biological target: Fuc(a1-2)[GalNAc(a1-3)]Gal(b1-4)[Fuc(a1-3)]GlcNAc(b1-3)GalNAc
# Method in brief: as §1
# [13] = biological target: Fuc(a1-2)[GalNAc(a1-4)]Gal(b1-4)GlcNAc
# Method in brief: as §1
# [14] = biological target: Fuc(a1-2)[GalNAc(b1-3)]Gal
# Method in brief: as §1
# Fuc(a1-3)GlcNAc = biological target: Fuc(a1-3)GlcNAc
# Method in brief: as §1
# [15] = biological target: Fuc(a1-3)[Gal(b1-4)]Glc6S
# Method in brief: as §1
# [16] = biological target: Fuc(a1-3)[Gal(b1-4)]GlcNAc
# Method in brief: as §1
# [17] = biological target: Fuc(a1-3)[Gal(b1-4)]GlcNAc(b1-2)Man
# Method in brief: as §1
# [18] = biological target: Fuc(a1-3)[Gal(b1-4)]GlcNAc(b1-2)Man(a1-3)[Fuc(a1-3)[Gal(b1-4)]GlcNAc(b1-2)Man(a1-6)]Man(b1-4)GlcNAc(b1-4)GlcNAc
# Method in brief: as §1
# [19] = biological target: Fuc(a1-3)[Gal(b1-4)]GlcNAc(b1-2)Man(a1-3)[Fuc(a1-3)[Gal(b1-4)]GlcNAc(b1-2)Man(a1-6)]Man(b1-4)GlcNAc(b1-4)[Fuc(a1-6)]GlcNAc
# Method in brief: as §1
# [20] = biological target: Fuc(a1-3)[Gal(b1-4)]GlcNAc(b1-3)Gal(b1-3)[Fuc(a1-4)]GlcNAc
# Method in brief: as §1
# [21] = biological target: Fuc(a1-3)[Gal(b1-4)]GlcNAc(b1-3)Gal(b1-4)[Fuc(a1-3)]GlcNAc
# Method in brief: as §1
# [22] = biological target: Fuc(a1-3)[Gal(b1-4)]GlcNAc(b1-3)Gal(b1-4)[Fuc(a1-3)]GlcNAc(b1-3)Gal(b1-4)[Fuc(a1-3)]GlcNAc
# Method in brief: as §1
# [23] = biological target: Fuc(a1-3)[Gal(b1-4)]GlcNAc(b1-3)GalNAc
# Method in brief: as §1
# [24] = biological target: Fuc(a1-3)[Gal(b1-4)]GlcNAc(b1-6)GalNAc
# Method in brief: as §1
# [25] = biological target: Fuc(a1-3)[Gal(b1-4)]GlcNAc(b1-6)[Gal(b1-3)GlcNAc(b1-3)]Gal(b1-4)Glc
# Method in brief: as §1
# [26] = biological target: Fuc(a1-3)[Gal(b1-4)]GlcNAc6S
# Method in brief: as §1
# [27] = biological target: Fuc(a1-3)[Gal3S(b1-4)]Glc
# Method in brief: as §1
# [28] = biological target: Fuc(a1-3)[Gal3S(b1-4)]GlcNAc
# Method in brief: as §1
# [29] = biological target: Fuc(a1-3)[Gal3S(b1-4)]GlcNAc6S
# Method in brief: as §1
# [30] = biological target: Fuc(a1-3)[GalNAc(b1-4)]GlcNAc
# Method in brief: as §1
# [31] = biological target: Fuc(a1-3)[GalNAc(b1-4)]GlcNAc6S
# Method in brief: as §1
# Fuc(a1-4)GlcNAc = biological target: Fuc(a1-4)GlcNAc
# Method in brief: as §1
# Fuc(b1-3)GlcNAc = biological target: Fuc(b1-3)GlcNAc
# Method in brief: as §1
# Gal(a1-2)Gal = biological target: Gal(a1-2)Gal
# Method in brief: as §1
# Gal(a1-3)Gal = biological target: Gal(a1-3)Gal
# Method in brief: as §1
# Gal(a1-3)Gal(b1-3)GlcNAc = biological target: Gal(a1-3)Gal(b1-3)GlcNAc
# Method in brief: as §1
# [32] = biological target: Gal(a1-3)Gal(b1-3)GlcNAc(b1-2)Man
# Method in brief: as §1
# [33] = biological target: Gal(a1-3)Gal(b1-3)GlcNAc(b1-2)Man(a1-3)[Gal(a1-3)Gal(b1-3)GlcNAc(b1-2)Man(a1-6)]Man(b1-4)GlcNAc(b1-4)GlcNAc
# Method in brief: as §1
# [34] = biological target: Gal(a1-3)Gal(b1-3)GlcNAc(b1-3)GalNAc
# Method in brief: as §1
# [35] = biological target: Gal(a1-3)Gal(b1-3)GlcNAc(b1-6)GalNAc
# Method in brief: as §1
# [36] = biological target: Gal(a1-3)Gal(b1-3)[Fuc(a1-4)]GlcNAc(b1-2)Man(a1-3)[Gal(a1-3)Gal(b1-3)[Fuc(a1-4)]GlcNAc(b1-2)Man(a1-6)]Man(b1-4)GlcNAc(b1-4)GlcNAc
# Method in brief: as §1
# Gal(a1-3)Gal(b1-4)Glc = biological target: Gal(a1-3)Gal(b1-4)Glc
# Method in brief: as §1
# Gal(a1-3)Gal(b1-4)GlcNAc = biological target: Gal(a1-3)Gal(b1-4)GlcNAc
# Method in brief: as §1
# [37] = biological target: Gal(a1-3)Gal(b1-4)GlcNAc(b1-2)Man
# Method in brief: as §1
binder,measurement,setting,value
FliC (Clostridium difficile) (protein) MRVNTNVSALIANNQMGRNVNGQSKSMEKLSSGVRIKRAADDAAGLAISEKMRAQIKGLDQAGRNVQDGISVVQTAEGSLEETGNILQRMRTLSLQSANEINNTEEREKIADELTQLKDEIERISSSTEFNGKKLLDGTSSTIRLQVGASYGTNVSGTSNNNNEIKIQLVNTASIMASAGITTASIGSMKAGGTTGTDAAKTMVSSLDAALKSLNSSRAKLGAQQNRLESTQNNLNNTLENVTAAESRIRDTDVASEMVNLSKMNILVQASQSMLAQANQQPQGVLQLLG,glycan array binding signal (z-score),[1],-0.381
same,glycan array binding signal (z-score),[2],-0.677
same,glycan array binding signal (z-score),[3],-0.698
same,glycan array binding signal (z-score),[4],0.362
same,glycan array binding signal (z-score),[5],0.713
same,glycan array binding signal (z-score),[6],0.703
same,glycan array binding signal (z-score),[7],0.873
same,glycan array binding signal (z-score),[8],0.431
same,glycan array binding signal (z-score),[9],0.005
same,glycan array binding signal (z-score),[10],-0.283
same,glycan array binding signal (z-score),[11],-0.174
same,glycan array binding signal (z-score),[12],-0.106
same,glycan array binding signal (z-score),[13],-0.165
same,glycan array binding signal (z-score),[14],-0.533
same,glycan array binding signal (z-score),Fuc(a1-3)GlcNAc,-0.747
same,glycan array binding signal (z-score),[15],0.165
same,glycan array binding signal (z-score),[16],-0.337
same,glycan array binding signal (z-score),[17],-0.202
same,glycan array binding signal (z-score),[18],1.35
same,glycan array binding signal (z-score),[19],0.331
same,glycan array binding signal (z-score),[20],-0.313
same,glycan array binding signal (z-score),[21],-0.063
same,glycan array binding signal (z-score),[22],-0.069
same,glycan array binding signal (z-score),[23],-0.15
same,glycan array binding signal (z-score),[24],0.423
same,glycan array binding signal (z-score),[25],-0.284
same,glycan array binding signal (z-score),[26],-0.087
same,glycan array binding signal (z-score),[27],1.81
same,glycan array binding signal (z-score),[28],0.132
same,glycan array binding signal (z-score),[29],0.354
same,glycan array binding signal (z-score),[30],-0.706
same,glycan array binding signal (z-score),[31],-0.276
same,glycan array binding signal (z-score),Fuc(a1-4)GlcNAc,0.102
same,glycan array binding signal (z-score),Fuc(b1-3)GlcNAc,-0.932
same,glycan array binding signal (z-score),Gal(a1-2)Gal,-0.637
same,glycan array binding signal (z-score),Gal(a1-3)Gal,0.039
same,glycan array binding signal (z-score),Gal(a1-3)Gal(b1-3)GlcNAc,4.21
same,glycan array binding signal (z-score),[32],-0.592
same,glycan array binding signal (z-score),[33],-0.204
same,glycan array binding signal (z-score),[34],-0.411
same,glycan array binding signal (z-score),[35],-0.065
same,glycan array binding signal (z-score),[36],0.34
same,glycan array binding signal (z-score),Gal(a1-3)Gal(b1-4)Glc,0.767
same,glycan array binding signal (z-score),Gal(a1-3)Gal(b1-4)GlcNAc,-0.787
same,glycan array binding signal (z-score),[37],-0.716

# 2 records drawn at random from those above, as already listed:
binder,measurement,setting,value
FliC (Clostridium difficile) (protein) MRVNTNVSALIANNQMGRNVNGQSKSMEKLSSGVRIKRAADDAAGLAISEKMRAQIKGLDQAGRNVQDGISVVQTAEGSLEETGNILQRMRTLSLQSANEINNTEEREKIADELTQLKDEIERISSSTEFNGKKLLDGTSSTIRLQVGASYGTNVSGTSNNNNEIKIQLVNTASIMASAGITTASIGSMKAGGTTGTDAAKTMVSSLDAALKSLNSSRAKLGAQQNRLESTQNNLNNTLENVTAAESRIRDTDVASEMVNLSKMNILVQASQSMLAQANQQPQGVLQLLG,glycan array binding signal (z-score),[16],-0.337
same,glycan array binding signal (z-score),[21],-0.063

# Reference: the supplement of paper PMC8728848
